This is an account of results in PMC10257415.

Sequences of proteins named here, by UniProt entry; tags and fusion partners are left off.
UniProt P40763: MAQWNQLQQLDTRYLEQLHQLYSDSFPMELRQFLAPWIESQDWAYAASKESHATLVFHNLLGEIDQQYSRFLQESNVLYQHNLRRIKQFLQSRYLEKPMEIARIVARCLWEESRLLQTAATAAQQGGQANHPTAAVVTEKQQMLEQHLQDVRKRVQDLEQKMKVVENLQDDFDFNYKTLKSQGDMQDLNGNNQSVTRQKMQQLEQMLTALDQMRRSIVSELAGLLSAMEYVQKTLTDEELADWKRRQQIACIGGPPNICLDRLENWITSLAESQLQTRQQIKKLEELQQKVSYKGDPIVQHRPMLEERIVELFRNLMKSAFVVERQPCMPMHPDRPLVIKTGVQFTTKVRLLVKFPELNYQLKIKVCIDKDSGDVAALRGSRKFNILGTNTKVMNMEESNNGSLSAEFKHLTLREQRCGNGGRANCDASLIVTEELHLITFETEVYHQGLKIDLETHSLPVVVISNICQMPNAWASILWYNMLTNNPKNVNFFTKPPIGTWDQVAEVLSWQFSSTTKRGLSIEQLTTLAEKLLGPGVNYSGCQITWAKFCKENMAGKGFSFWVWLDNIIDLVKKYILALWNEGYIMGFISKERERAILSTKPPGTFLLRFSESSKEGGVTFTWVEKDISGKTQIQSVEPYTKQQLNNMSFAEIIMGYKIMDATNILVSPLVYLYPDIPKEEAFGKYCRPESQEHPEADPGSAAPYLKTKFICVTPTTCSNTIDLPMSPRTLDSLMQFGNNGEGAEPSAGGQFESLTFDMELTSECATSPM

The target of this experiment is T1, p100 (human (endogenous in primary CLL cells)) (UniProt Q00653).
T1 sequence: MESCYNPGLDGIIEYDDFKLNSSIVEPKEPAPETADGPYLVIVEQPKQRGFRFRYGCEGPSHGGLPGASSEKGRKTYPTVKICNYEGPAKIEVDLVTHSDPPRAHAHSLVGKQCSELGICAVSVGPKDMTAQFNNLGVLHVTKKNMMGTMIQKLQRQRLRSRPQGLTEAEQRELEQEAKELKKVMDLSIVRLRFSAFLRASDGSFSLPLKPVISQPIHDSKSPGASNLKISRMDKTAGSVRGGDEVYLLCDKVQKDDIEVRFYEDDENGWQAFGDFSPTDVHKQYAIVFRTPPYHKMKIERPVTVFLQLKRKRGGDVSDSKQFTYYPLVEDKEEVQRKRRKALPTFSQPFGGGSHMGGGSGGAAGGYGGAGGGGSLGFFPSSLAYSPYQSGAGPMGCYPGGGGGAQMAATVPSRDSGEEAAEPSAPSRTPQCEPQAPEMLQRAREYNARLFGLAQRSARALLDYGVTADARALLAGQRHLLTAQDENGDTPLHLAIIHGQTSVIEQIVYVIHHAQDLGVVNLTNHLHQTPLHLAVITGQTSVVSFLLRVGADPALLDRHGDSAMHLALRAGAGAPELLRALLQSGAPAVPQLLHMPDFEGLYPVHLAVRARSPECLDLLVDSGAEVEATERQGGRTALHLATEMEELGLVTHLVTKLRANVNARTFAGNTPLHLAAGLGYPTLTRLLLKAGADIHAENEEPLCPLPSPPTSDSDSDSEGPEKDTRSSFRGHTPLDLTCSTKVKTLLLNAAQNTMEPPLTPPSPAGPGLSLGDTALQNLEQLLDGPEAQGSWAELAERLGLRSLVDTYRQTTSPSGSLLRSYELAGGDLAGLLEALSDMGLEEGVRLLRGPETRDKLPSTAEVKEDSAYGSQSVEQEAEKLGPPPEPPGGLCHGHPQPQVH
Description: proximity ligation; in situ PLA in fixed, permeabilized primary CLL cells cultured on 3T3 or 3T40 fibroblasts with or without IL-21 or IL-4 (30 min or 24 h; Selinexor in one experiment); rabbit anti-p65, anti-p-p65 or anti-p100/p52 with mouse anti-STAT3 or anti-STAT6; anti-mouse PLUS and anti-rabbit MINUS probes; confocal microscopy.

These are yes or no findings as the source states them, for the method shown. Binding seen in cells or lysates may run through a third protein. Some results given as binding are weak or reduced against the parent protein; the word gives no strength.

As for STAT3 (from UniProt P40763 1-770), the binding result is recorded as “binds”.
